Results on 42 sequences are retold here after paper PMC7819943, “Rice protein-binding microarrays: a tool to detect cis-acting elements near promoter regions in rice”.

Sequences of proteins named here, by UniProt entry; tags and fusion partners are left off.
UniProt Q0JBA9, entry or part of it: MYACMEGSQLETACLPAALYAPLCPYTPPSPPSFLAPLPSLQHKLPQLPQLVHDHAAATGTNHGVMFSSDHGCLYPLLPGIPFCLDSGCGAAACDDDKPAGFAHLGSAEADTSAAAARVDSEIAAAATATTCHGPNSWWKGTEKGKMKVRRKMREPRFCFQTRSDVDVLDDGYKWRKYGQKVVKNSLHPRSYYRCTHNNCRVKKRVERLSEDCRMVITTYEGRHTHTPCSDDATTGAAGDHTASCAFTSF

The list shows a part of the results.

In the experiment the target is OsWRKY34 (Oryza sativa, UniProt Q0JBA9 1-250). The experiment in a line: protein-binding microarray (RPBM); PBS, 2% BSA, 51.3 ng/ul salmon testes DNA, 50 uM zinc acetate, 200 nM TF, 25 C, 1 h; high values mean tight binding. The conditions noted are these: protein: recombinant; tags: N-terminal polyhistidine and DsRed monomer fusion (pET32a); label: CyDye5-dUTP incorporated in the synthesized complementary strand; 3' TTTTT single-stranded linker to array surface; dsDNA, one strand shown. The method in brief: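 An Axon 4000B scanner gave the binding signal as per-feature fluorescence intensity in arbitrary units. This followed washing of a custom Agilent array that had been incubated for 1 h at 25 °C with 200 nM protein in PBS, 2% BSA, salmon testes DNA and 50 µM zinc acetate. The proteins were transcription factors fused at the N-terminus to polyhistidine and DsRed, expressed in E. coli BL21-CodonPlus and purified on Ni–NTA.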
On to “GGGTTTGCACGAAGATATTATACTTCCTCAGCTCTGTTCTCGGAGTCACCTAGTGCAG”, for which the binding signal was 10800 fluorescence intensity (a.u.).
In the case of “ATCTCGCCTGACCACCGTTCCCCACCTCGCCTCGCCTCGCCGGAGTCACCTAGTGCAG”, the binding signal is 11800 fluorescence intensity (a.u.).
As to “AAACTCGGCGTGGCCACAGTCCTCCACCGCCCTCCGCATGCGGAGTCACCTAGTGCAG”, the binding signal is 8550 fluorescence intensity (a.u.).
“CGAACCGAGCTTAGGTGATTTTTGCGGGTGGAGTTTTTTACGGAGTCACCTAGTGCAG”: the binding signal is 8460 fluorescence intensity (a.u.).
Next, “CCCGCGCATCACCATGGACCACACTTCATACGCACGCAGCCGGAGTCACCTAGTGCAG”: 13600 fluorescence intensity (a.u.); “CCACCTGTCTGGTTCGCGCGTTCTCCCGTCGGATCCCGCGCGGAGTCACCTAGTGCAG”: 10600 fluorescence intensity (a.u.); “TTTGCCACTGTTTTTGCTCATTGTTTAATGCTGCATCGATCGGAGTCACCTAGTGCAG”: 8580 fluorescence intensity (a.u.).
The result for “GCTGCGCGATCCAGGGTTTCGTGGTGTTGTTCCTCGTCTACGGAGTCACCTAGTGCAG” reads 11300 fluorescence intensity (a.u.).
The result for “CCTCCTTTCCTAAATATTTGACGCCGTTGACTTTTTTAAACGGAGTCACCTAGTGCAG” reads 13500 fluorescence intensity (a.u.); that for “TTACAATTTTATCACATATAAGTGGTCGACATTTGCTCATCGGAGTCACCTAGTGCAG”, 9400 fluorescence intensity (a.u.).
For “AAACTGCACGTGGACCTGAAGCATTTTCTCCTTCGTTTACCGGAGTCACCTAGTGCAG”, the binding signal is 11100 fluorescence intensity (a.u.).
Next, “AAATTGGTTGTCTTTTTACTACAGCCTGGTAGTATAACTTCGGAGTCACCTAGTGCAG”: 8210 fluorescence intensity (a.u.); “GTGCAAAAGCGCCCAACTCTACTCACTTTTCCCCAGCTTTCGGAGTCACCTAGTGCAG”: 9350 fluorescence intensity (a.u.).
Next, “AGTGTGTGTGTTGTGAGTGTCTATGTTGTACTGTGTAATTCGGAGTCACCTAGTGCAG”: 8390 fluorescence intensity (a.u.).
For “CTCGGGTTCGGGGTGCTTGCCTCGGGGCGCCGCGGCGGTGCGGAGTCACCTAGTGCAG”, the binding signal is 9540 fluorescence intensity (a.u.).
Regarding “CATCTCAATCATCTTTTCTTTTTCCTTGTTTCGTCCTGATCGGAGTCACCTAGTGCAG”, the binding signal is 8920 fluorescence intensity (a.u.).
As for “TTCTTCAGAAGTTACCGGTTTTCCACTTGATTTCGTGAAACGGAGTCACCTAGTGCAG”, the binding signal was 8240 fluorescence intensity (a.u.).
For “TGATTGTTGTTATGTTTGCACTAGTGAGTATGCAGTAAACCGGAGTCACCTAGTGCAG”, the binding signal is 9000 fluorescence intensity (a.u.).
As for “CTCTCTCTTCTTCTTCGTGTTGTTGTTTCTCTCTCTGTCTCGGAGTCACCTAGTGCAG”, the binding signal is 11700 fluorescence intensity (a.u.).
Next, “CATTTCACGCGAACTCGAGCCCCACACATATATATACACACGGAGTCACCTAGTGCAG”: 9980 fluorescence intensity (a.u.); “ACTCTATCCTGCATCTGTTATAATTTCAAGTTCTAAACTGCGGAGTCACCTAGTGCAG”: 10300 fluorescence intensity (a.u.); “ATTTGTCGTCCAGTCTGATTTTCGTCCCTGAACCGCAAAACGGAGTCACCTAGTGCAG”: 10000 fluorescence intensity (a.u.).
For the sequence “TTTAAACATTTTATTTCCATTTTTAATTTTTTTTCCTTATCGGAGTCACCTAGTGCAG”, the binding signal was 8100 fluorescence intensity (a.u.).
In the case of “TCGCGTAGGGGAGGGGTGAAATATATTTTTTATGCCGGGCCGGAGTCACCTAGTGCAG”, the binding signal is 18000 fluorescence intensity (a.u.).
The result for “GAAGACCGGCGACTGCTGCACTTTCTCCCGCGGGCCTCGCCGGAGTCACCTAGTGCAG” reads 9010 fluorescence intensity (a.u.); that for “AATTCTACCCGCTCGGAGCTCCTCCCCTTTCATCGTCTCCCGGAGTCACCTAGTGCAG”, 8750 fluorescence intensity (a.u.); that for “TCCGAATTCTCTCTCTCCTCCATTTTTGTGAGTTTTTTTTCGGAGTCACCTAGTGCAG”, 14100 fluorescence intensity (a.u.).
As for “CTGTTTAGATCCCACCTCAAAATTTTTCACCCTGTCACATCGGAGTCACCTAGTGCAG”, the binding signal was 11700 fluorescence intensity (a.u.).
The result for “TTGCCTTTTGGTGCCCGTTCGCTGTTCTTCTTGTCGTCTGCGGAGTCACCTAGTGCAG” reads 10500 fluorescence intensity (a.u.); that for “ATTGCCGTTTATATTTGGTCAAATTTAAACGTTTTCTTTTCGGAGTCACCTAGTGCAG”, 8020 fluorescence intensity (a.u.).
With “GCCTTAGCTCTTCGCCATAAGATTGCACTTGTAGTACTTTCGGAGTCACCTAGTGCAG”, the binding signal was 8180 fluorescence intensity (a.u.).
Next, “AAACTGCACTACTTTATCTTGGTTGTCTTTAGCATAAGAACGGAGTCACCTAGTGCAG”: 12100 fluorescence intensity (a.u.).
The result for “CACCAACCACGTATGTGCTACTTGTCTTGCAAGCAAATCCCGGAGTCACCTAGTGCAG” reads 8200 fluorescence intensity (a.u.); that for “CTCTCGTTTGCATTGCAGGGATCATCAACCGCGCGTCATGCGGAGTCACCTAGTGCAG”, 8990 fluorescence intensity (a.u.).
As to “TATTTTTTTCATATTAATATCGTTACCTGTTCCTCTTTTACGGAGTCACCTAGTGCAG”, the binding signal is 10400 fluorescence intensity (a.u.).
Next, “TGTGATATCCGTAACTCTGACACTCCGTATTTGTGAATCTCGGAGTCACCTAGTGCAG”: 8100 fluorescence intensity (a.u.); “ACATGATGGATGTTTTATTGTCCTCGGTCTCTACGCTCTTCGGAGTCACCTAGTGCAG”: 8280 fluorescence intensity (a.u.).
Consider “GTCGTCGTCTTCGTCTCGAGTTCTTGGTTGGTTGGATCTACGGAGTCACCTAGTGCAG”, for which the binding signal was 19400 fluorescence intensity (a.u.).
As for “TTACCTGTTCTTTGGCAGAATTTGTGTGGAGGGTGGTTTGCGGAGTCACCTAGTGCAG”, the binding signal is 8120 fluorescence intensity (a.u.).
Next, “TGTCCCAACAACGTTCAACGCGTTCTGCCACAACCCACAACGGAGTCACCTAGTGCAG”: 9360 fluorescence intensity (a.u.); “CCTCCAATCAACTGTACAATGAGTAGCTCATTTCTCTTTTCGGAGTCACCTAGTGCAG”: 8760 fluorescence intensity (a.u.).
Next, “CGCACTCTCTCTCGCTATAGCCTATAGCGTCTCTCCCGAACGGAGTCACCTAGTGCAG”: 11400 fluorescence intensity (a.u.).
